Measurements: PubChem BioAssay AID2685 (National Center for Advancing Translational Sciences (NCATS), 2010)
This is one part of the list. Further columns of the screen follow, without active or inactive calls. Compounds called inactive in the main read-out are mostly missing here. The note in brackets gives the kind of curve behind each potency; many fits are weak.

Test: qHTS Assay for Lipid Storage Modulators in Drosophila S3 Cells;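 on cell number change: cells counted by Cell Tracker Red CMTPX staining in the red channel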
Details: BODIPY lipid droplet fluorescence, 18-24 h; for cell number change: measured here: cell count max response, cells fed with added oleic acid
Summary of the method: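 Laser-scanning cytometry quantifies lipid droplet accumulation (500–530 nm total intensity; droplet/cell object ratio) in oleic acid-fed (400 uM added) Drosophila S3 cells treated with a concentration series. 20 uM Triacsin C defined 100% inhibition.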

[1] = measured here: cell number channel AC50, cells fed with added oleic acid
[2] = measured here: lipid fluorescence (Fed channel) AC50, cells fed with added oleic acid

SMILES	AC50 [1]	cell number change [%]	AC50 [2]
Cc1nn(-c2ccccc2)c(C)c1[N+](=O)[O-]	0.58 µM [falling, full curve, poor fit]		
CCOc1ccc(NC(=O)CSc2ncn[nH]2)cc1		26.7	0.731 µM [rising, full curve]
Oc1c(Cl)cc(Cl)cc1C1=NNC(c2ccc(Cl)cc2)C1 (stereo not drawn)		-22.2	20.6 µM [falling, single point]
CCOc1ccc(N2CC(C(=O)N3CCCc4ccccc43)CC2=O)cc1 (stereo not drawn)		24.8	29.1 µM [falling, single point]
CCc1ccccc1OCC(=O)Nc1ccc2c(c1)OCCO2		-4.27	20.6 µM [rising, partial curve]
COC(=O)c1sccc1NC(=O)c1cc(OC)cc(OC)c1		-24.6	29.1 µM [falling, single point]
CC(C)(C)C(=O)/C=c1\[nH]c(=O)/c(=C\c2ccccc2F)s1		16.4	
O=S(=O)(c1ccc2ccccc2c1)N1CCN(CCO)CC1			6.51 µM [falling, single point]
Cc1cc2c(N)cccc2nn1		1.35	4.61 µM [falling, single point]
O=C(NCc1cccnc1)c1cc2ccccc2oc1=O	2.31 µM [rising, partial curve]		6.51 µM [rising, single point]
COc1cccc(C(=O)OCc2cc(=O)oc3c(C)c(C)ccc23)c1OC		14.5	5.8 µM [falling, single point]
O=C(OCC(=O)N(C1CCCCC1)C1CCCCC1)c1ccco1		12.3	29.1 µM [rising, single point]
COc1cccc(/C(O)=C2/C(=O)C(=O)N(CCCN3CCOCC3)C2c2ccncc2)c1 (stereo not drawn)	20.6 µM [falling, single point]	-40	
Cc1cc(C)nc(SCc2ccccc2C#N)n1	0.00461 µM [rising, full curve, poor fit]	5.78	0.461 µM [rising, full curve]
CN(C)c1ccc(/C=N/NC(=O)c2nonc2N)cc1[N+](=O)[O-]		16.1	6.51 µM [falling, single point]
Cc1ccc(OCCN2C(=O)c3ccccc3C2=O)cc1		20.2	
CCOc1ccc(CN(C)CC(=O)Nc2cccc(C)c2)cc1OC	4.61 µM [rising, single point]	0.407	2.31 µM [rising, partial curve]
COc1ccc(OC)c(NC(=O)c2cnn(-c3ccccc3)c2C)c1		2.75	5.8 µM [rising, single point]
Cc1ccc(S(=O)(=O)N2CCOCC2)cc1C(=O)OCC(=O)N1c2ccccc2NC(=O)C1(C)C	7.31 µM [rising, partial curve]	40.2	14.6 µM [rising, partial curve]
CCC1CCCCN1C(=O)CSc1nc(N)c(NC(=O)c2ccc(OC)c(OC)c2)c(=O)[nH]1 (stereo not drawn)	5.8 µM [falling, single point]		
Cn1c(CNC2CCCCC2)nc2ccccc21		3.26	6.51 µM [rising, single point]

SMILES	AC50 [1]	cell number change [%]	AC50 [2]
Cc1ccc(CC(=O)Nc2nc3ccccc3[nH]2)cc1C		20.9	29.1 µM [falling, single point]
O=C(Nc1ccccc1-c1ccccc1)C1CCCC1			29.1 µM [rising, partial curve]
Cc1ccccc1NC(=O)CN1CCN(C)CC1		-15.3	
Cc1cccc(-n2[nH]c3c4c(ccc3c2=O)C(=O)c2ccccc2C4=O)c1		-15.6	2.91 µM [falling, full curve, poor fit]
NCCCCCc1nnc(SCC(=O)Nc2cccc(Cl)c2)o1		-8.8	
COc1ccc(CCNC(=O)CSc2nnnn2-c2ccccc2OC)cc1OC		-12.9	
CCSc1nnc(NC(=O)C2CC(=O)N(Cc3ccc(C)cc3)C2)s1 (stereo not drawn)	1.03 µM [falling, full curve, poor fit]	-37.9	
CCCCC(C(=O)O)C(C)CC(=O)Nc1ccn(-c2ccccc2)n1 (stereo not drawn)		20.4	
CC(=O)C(Cc1ccccc1)NC(=O)CN1CCN(Cc2ccccc2)CC1 (stereo not drawn)		-20.9	
CCOC(=O)CC(=O)NC(CC(=O)OC)c1ccc(C(C)C)cc1 (stereo not drawn)		-7.3	32.6 µM [falling, single point]
COc1ccc(-c2nnc3n2N=C(c2cccc(Br)c2)CS3)cc1OC		-10.2	0.92 µM [rising, partial curve]
O=C1C2CCCCN2C(=O)N1CCCCN1CCN(c2cccc(Cl)c2)CC1 (stereo not drawn)		8.2	25.9 µM [falling, single point]
CC1(C)CC(=O)C=C(NC2CCCCCC2)C1		0.325	1.3 µM [rising, full curve]
O=c1cc2n(c(=O)[nH]1)CCC1=C2CCCC1	0.0366 µM [falling, full curve, poor fit]	-16.4	0.326 µM [falling, full curve, poor fit]
CCCNC(=O)NC(=O)COc1ccc2oc3ccccc3c2c1	0.731 µM [rising, full curve, poor fit]	27.2	
COc1ccc2nc(NC(=O)C34CC5CC(CC(NC(C)=O)(C5)C3)C4)sc2c1		8.67	6.51 µM [rising, single point]
O=C(COC(=O)C1CC2CCCC(C1)C2=O)NNC(=O)c1ccccc1Br (stereo not drawn)		-22.5	0.146 µM [rising, full curve, poor fit]
O=C(CCNS(=O)(=O)c1cccc2nsnc12)N1CCN(c2ccccn2)CC1	2.06 µM [rising, partial curve]		4.11 µM [rising, full curve, poor fit]
CC(C)(C)c1ccccc1OCCCCCn1ccnc1	7.94 µM [falling, partial curve, poor fit]	-37.6	17.8 µM [falling, single point]
NS(=O)(=O)c1ccc(NC(=S)Nc2ccc(OCc3ccccc3)cc2)cc1		-14	0.461 µM [falling, partial curve, poor fit]
COc1ccc(S(=O)(=O)Nc2ccc(Oc3ncccn3)c(Cl)c2)cc1			0.731 µM [rising, full curve, poor fit]

Complete entries from above:
CCCNC(=O)NC(=O)COc1ccc2oc3ccccc3c2c1 in the list: AC50 [1]: 0.731 µM [rising, full curve, poor fit]; cell number change [%]: 27.2
CCSc1nnc(NC(=O)C2CC(=O)N(Cc3ccc(C)cc3)C2)s1 (stereo not drawn) in the list: AC50 [1]: 1.03 µM [falling, full curve, poor fit]; cell number change [%]: -37.9
COc1ccc2nc(NC(=O)C34CC5CC(CC(NC(C)=O)(C5)C3)C4)sc2c1 in the list: cell number change [%]: 8.67; AC50 [2]: 6.51 µM [rising, single point]
Cc1ccccc1NC(=O)CN1CCN(C)CC1 in the list: cell number change [%]: -15.3

(listing goes on)

SMILES	AC50 [1]	cell number change [%]	AC50 [2]
CCn1ccnc1CN(C)Cc1cn(-c2ccccc2)nc1-c1ccc(OC)cc1F	3.66 µM [rising, partial curve, poor fit]	34.7	
COc1ccccc1CNC(=O)C1CCN(C(=O)N(C)C)CC1		10.8	0.116 µM [rising, full curve, poor fit]
CCCCC(CC)CNC(=O)c1ncn[nH]1 (stereo not drawn)		-36.8	6.51 µM [falling, single point]
Cc1sc(N/N=C/c2cccnc2)nc1-c1ccccc1	13 µM [falling, partial curve]	-52.5	16.4 µM [falling, partial curve]
O=C(CN1CCN(S(=O)(=O)c2ccccc2Cl)CC1)NCC1(N2CCOCC2)CCCCC1	14.6 µM [rising, partial curve]	77.9	
CC(=O)Nc1ccc(Nc2ncnc3c2cnn3-c2ccc(C)cc2C)cc1			18.4 µM [rising, single point]
CCNc1cc2n(c(=O)n1)CCc1cc(OC)c(OC)cc1-2	3.26 µM [rising, full curve, poor fit]	20.2	
C=CCOc1c2ccc(C(=O)NCc3ccccc3OC)cc2nn1C		-1.68	0.00517 µM [falling, full curve, poor fit]
O=C(c1ccc2c3c(cccc13)CC2)C1CCCN(C(=O)c2cc[n+]([O-])cc2)C1 (stereo not drawn)		27.6	6.51 µM [rising, full curve, poor fit]
CCNC(=S)N/N=C/c1ccc(OCCOc2ccccc2C)cc1	7.31 µM [falling, partial curve, poor fit]	-77.1	0.651 µM [falling, partial curve, poor fit]
Cc1c(C)c2ccc(OCC(=O)NC3CCN(Cc4ccccc4)CC3)cc2oc1=O		34.5	
O=C(c1ccccc1)N1CCN(c2ccc([N+](=O)[O-])c(N3CCOCC3)c2)CC1		-0.89	6.51 µM [falling, single point]
Cc1cc(C)c(S(=O)(=O)Nc2ccc(O)cc2)cc1C	29.1 µM [rising, single point]	40.1	0.651 µM [rising, partial curve, poor fit]
Cc1noc(/C=C/N(C)C)c1S(=O)(=O)N1CCCC(C(=O)NCc2cccs2)C1 (stereo not drawn)	29.1 µM [rising, single point]	83.9	
CCc1nnc(NC(=O)CSc2nnc(CNc3ccc(F)cc3)n2C2CCCCC2)s1	0.00461 µM [falling, full curve, poor fit]	-21.1	0.411 µM [falling, partial curve, poor fit]
O=C(O)c1ccc(N/N=C/C=C/c2ccccc2)cc1		13.4	18.4 µM [rising, single point]
Nc1nc(SCC(=O)Nc2ccccc2)[nH]c(=O)c1-c1ccccc1		-1.05	0.58 µM [falling, single point]
Cc1cccc(N(C(=O)c2csnn2)C(C(=O)NC2CCCCC2)c2ccccn2)c1C (stereo not drawn)		-2.92	9.2 µM [rising, single point]
COCCNc1nc2ccccc2nc1NS(=O)(=O)c1ccc(C)cc1C	2.06 µM [rising, partial curve]	42.5	7.31 µM [rising, partial curve]
